Results are given in words; binding and its absence hold for the method and conditions named. In cells and extracts the contact can be indirect. For some of these results: A result given as binding can be weak or reduced; the word gives no strength. Sequences can lack the tags named with a protein.
How the values were obtained:
Experiment in all cases: co-IP
[1] = target: GFP-SteD^1-102 (Salmonella enterica)
[2] = target: GFP-SteD^1-41 (Salmonella enterica)
[3] = target: GFP-SteD^37-102 (Salmonella enterica)
[4] = target: GFP-SteD^37-111 (Salmonella enterica)

B1: FLAG-TMEM127 (protein, UniProt O75204 1-238)
chain: MYAPGGAGLPGGRRRRSPGGSALPKQPERSLASALPGALSITALCTALAEPAWLHIHGGTCSRQELGVSDVLGYVHPDLLKDFCMNPQTVLLLRVIAAFCFLGILCSLSAFLLDVFGPKHPALKITRRYAFAHILTVLQCATVIGFSYWASELILAQQQQHKKYHGSQVYVTFAVSFYLVAGAGGASILATAANLLRHYPTEEEEQALELLSEMEENEPYPAEYEVINQFQPPPAYTP
[1]
  binding: binds
[2]
  binding: no binding
[3]
  binding: binds weakly
[4]
  binding: binds
